These are yes or no findings as the source states them, for the method shown. Some binding calls cover weakened binding; strength is not graded here. One block for each binder: values may come before it.
What was measured:
[1] = target: C末端10×His BCL-2断片 HuBcl-2 10×His pET303 (human) (UniProt P10415); experiment: semi-optimised sandwich ELISA, capture
[2] = target: C末端10×His BCL-2断片 HuBcl-2 10×His pET303 (human) (UniProt P10415); experiment: lateral flow (LFS), detector or capture
[3] = target: C末端10×His BCL-2断片 HuBcl-2 10×His pET303 (human) (UniProt P10415); experiment: lateral flow assay, detector (also capture in set #3)
[4] = target: C末端10×His BCL-2断片 HuBcl-2 10×His pET303 (human) (UniProt P10415); experiment: lateral flow assay, gold detector, 0/1/10/100 ng/mL BCL-2
[5] = target: C末端10×His BCL-2断片 HuBcl-2 10×His pET303 (human) (UniProt P10415); experiment: lateral flow assay, capture spot 0.5 mg/mL, 100 ng/mL BCL-2
[6] = target: C末端10×His BCL-2断片 HuBcl-2 10×His pET303 (human) (UniProt P10415); experiment: lateral flow assay, striped capture 0.5 mg/mL, 0/1/10/100 ng/mL BCL-2
[7] = target: C末端10×His BCL-2断片 HuBcl-2 10×His pET303 (human) (UniProt P10415); experiment: lateral flow assay, gold detector with 18E10 or 02C10 capture, 100 ng/mL BCL-2
[8] = target: C末端10×His BCL-2断片 HuBcl-2 10×His pET303 (human) (UniProt P10415); experiment: sandwich EIA, 200 ng capture per well, biotinylated detector 1:1K, 2 ng/mL rBCL-2
[9] = target: C末端10×His BCL-2断片 HuBcl-2 10×His pET303 (human) (UniProt P10415); experiment: matched-pair sandwich ELISA, capture 2 ug/mL, biotin conjugate 1 ug/mL, 25 ng/mL rBcl-2
[10] = target: C末端10×His BCL-2断片 HuBcl-2 10×His pET303 (human) (UniProt P10415); experiment: lateral flow assay, detector
[11] = target: C末端10×His BCL-2断片 HuBcl-2 10×His pET303 (human) (UniProt P10415); experiment: lateral flow (LFS), detector
[12] = target: C末端10×His BCL-2断片 HuBcl-2 10×His pET303 (human) (UniProt P10415); experiment: sandwich EIA, biotinylated detector 1:1K, 2 ng/mL rBCL-2
[13] = target: C末端10×His BCL-2断片 HuBcl-2 10×His pET303 (human) (UniProt P10415); experiment: semi-optimised sandwich ELISA, detector with 10A12 capture
[14] = target: C末端10×His BCL-2断片 HuBcl-2 10×His pET303 (human) (UniProt P10415); experiment: lateral flow assay, 40 nm gold detector with 10A12 capture, 100 ng/mL BCL-2
[15] = target: C末端10×His BCL-2断片 HuBcl-2 10×His pET303 (human) (UniProt P10415); experiment: matched-pair sandwich ELISA, biotin tracer with 10A12 capture, 25 ng/mL rBcl-2

By UniProt entry, the sequences of proteins in these tests, tags left out. Where a name states a change or a piece, a line headed by the entry shows the natural chain unless it says otherwise. Chains listed by the source or under a name are the forms on record and can include a tag or linker.
C末端10×His BCL-2断片 HuBcl-2 10×His pET303 (P10415, form named): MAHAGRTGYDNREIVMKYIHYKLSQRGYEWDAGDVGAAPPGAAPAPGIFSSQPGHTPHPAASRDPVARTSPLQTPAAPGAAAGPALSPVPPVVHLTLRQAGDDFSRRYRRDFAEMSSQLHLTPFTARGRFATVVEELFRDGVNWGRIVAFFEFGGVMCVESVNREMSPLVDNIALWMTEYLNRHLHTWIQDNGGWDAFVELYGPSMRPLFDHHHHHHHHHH

binding [1]: binds
binding [2]: binds
binding [3]: binds
binding [4]: binds
binding [5]: binds
binding [6]: binds
binding [7]: binds
binding [8]: binds
binding [9]: binds
B1: Bcl-2-41 Pep-KLH-BA-1.3-10A12-02F02 (antibody, V domains shown)
VH: QVQLQQSGPQLVRPGASVKISCKASGYSFTSYWMHWVKQRPGQGLEWIGMIDPSDSETRLNQKFKDKATLTVDKSSSTAYMQLSRPTFEDSAVYYCERGDYYYGSSYFAYWGQGTLVTVSA
VL: QAVVTQESALTTSPGETITLTCRSSTGAVTTSNYATWVQEKPDHLFTGLMGGTTYRAPGVPARFSGSLIGDKAALTITGAQTEDEAMYFCALWFSNHFWVFGGGTKLTVL

binding [10]: binds
binding [11]: binds
binding [12]: binds
binding [4]: binds
binding [13]: binds
binding [14]: binds
binding [15]: binds
B2: Bcl-2-61 Pep-KLH-BA-1.1-14A09-02C08-02F06 (antibody, V domains shown)
VH: EVQLQQSGPELVNPGASVKMSCKASGYTFTDYYLDWVKQSHGESFEWIGRANPYNGVTNSNQKFKGKATLTVDMSSSTAFMELNSLTFEDSAVYYCARSSFDVWGAGTTVTVSS
VL: DIVITQDELSHPVTSGESVSISCRSSKSLLYKDGKTYLNWFLQRPGQSPQLLIYLVSTRASGVSDRFSGSGSGTDFTLEISRVKAEDVGVYYCQQPVEYPFTFGSGTKLEIK

Source: patent JP2021530247A
